{
  "source": "PubChem BioAssay (NCATS)",
  "note": "The other results are listed elsewhere or left out. These are further read-outs of the screen, such as a control signal, another cell line or another target. No call is given for them. The list favours compounds with an active or inconclusive main result. Words in brackets tell the shape of the fitted curve; partial curves, single points and poor fits give uncertain potencies.",
  "data": [
    {"test": "qHTS Assay for Inhibitors of PDE-IV (AID 607)", "conditions": "HEK293 ACTOne CNG channel cells, membrane potential fluorescence; measured here: parental cell counter-screen", "in_short": "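ACTOne HEK293 cells carry a modified cAMP-gated CNG channel and express endogenous PDE4; plated 1000 cells/well, compounds up to 22.9 uM final. Membrane-potential dye fluorescence (ex 535/em 590) was read; parental cells received 10 uM forskolin + 100 uM RO 20-1724.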", "values": [
      {"smiles": "COc1ccc(Br)c2c1C[C@H](C(=O)O)CC2", "AC50": "3.16 µM [rising, single point]"},
      {"smiles": "Cc1cccc(CNc2ccnc(-c3ccccc3CN(C)C)n2)c1", "AC50": "12.6 µM [rising, partial curve]"},
      {"smiles": "COC(=O)[C@@]1(Cc2ccc(OC)cc2)[C@H]2c3cc(C(=O)N4CCCC4)n(Cc4cc(F)cc5c4OCOC5)c3C[C@H]2CN1C(=O)c1ccccc1", "AC50": "12.6 µM [rising, single point]"},
      {"smiles": "COC(=O)N1CCC2(CCCN(C(=O)Nc3cccc(F)c3)C2)CC1", "AC50": "15.8 µM [rising, single point]"},
      {"smiles": "Cc1ccc(OC[C@H](O)[C@H](C)NC(C)C)c2c1CCC2", "AC50": "12.6 µM [rising, partial curve]"},
      {"smiles": "NC(N)=NN=Cc1c(Cl)cccc1Cl", "AC50": "10 µM [rising, partial curve, poor fit]"},
      {"smiles": "CC(C)NC(=O)N1CCC2(CC1)CCN(C(=O)c1cccc(F)c1)CC2", "AC50": "3.98 µM [rising, single point]"},
      {"smiles": "CCCC[C@@H]1C[C@H]1C(NC(=O)Cc1ccccc1)c1ccc(Cl)cc1", "note": "(stereo partly specified)", "AC50": "10 µM [rising, partial curve]"},
      {"smiles": "O[C@@](CCN1CCCC1)(c1ccccc1)C1CCCCC1", "AC50": "10 µM [rising, single point]"},
      {"smiles": "COc1ccc(CNc2ccnc(-c3ccccc3CN(C)C)n2)c(OC)c1", "AC50": "15.8 µM [rising, single point]"},
      {"smiles": "c1ccc(-c2cccc(N3CCC4(CCNCC4)CC3)c2)cc1", "AC50": "15.8 µM [rising, single point]"}
    ]}
  ]
}
